Data: article PMC11597407
No constants are given. Whether binding was seen depends on the method and setting. In cells and extracts the contact can be indirect. Some results given as binding are weak or reduced against the parent protein; the word gives no strength.

Chains of the proteins cited; added tags and fusions are not shown. Residues count along the entry.
UniProt P12023, residues 18-770: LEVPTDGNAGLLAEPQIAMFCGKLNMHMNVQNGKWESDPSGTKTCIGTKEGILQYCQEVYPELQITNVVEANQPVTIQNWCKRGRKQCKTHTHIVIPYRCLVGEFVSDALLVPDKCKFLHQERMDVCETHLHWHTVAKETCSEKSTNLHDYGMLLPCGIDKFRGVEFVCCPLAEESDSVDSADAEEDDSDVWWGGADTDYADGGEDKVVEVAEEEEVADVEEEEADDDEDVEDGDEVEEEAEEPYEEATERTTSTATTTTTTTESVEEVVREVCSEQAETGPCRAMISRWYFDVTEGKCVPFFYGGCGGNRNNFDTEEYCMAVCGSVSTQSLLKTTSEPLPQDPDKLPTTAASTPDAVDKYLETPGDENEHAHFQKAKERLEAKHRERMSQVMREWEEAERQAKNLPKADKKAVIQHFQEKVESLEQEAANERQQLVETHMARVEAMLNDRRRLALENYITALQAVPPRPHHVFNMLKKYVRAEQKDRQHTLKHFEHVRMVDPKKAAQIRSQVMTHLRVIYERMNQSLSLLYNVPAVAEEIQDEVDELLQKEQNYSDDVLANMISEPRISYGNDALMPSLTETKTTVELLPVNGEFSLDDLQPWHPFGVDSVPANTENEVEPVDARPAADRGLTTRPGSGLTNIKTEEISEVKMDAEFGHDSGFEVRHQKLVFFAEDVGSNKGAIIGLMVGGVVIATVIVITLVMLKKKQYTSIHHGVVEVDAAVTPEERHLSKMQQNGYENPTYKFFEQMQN
UniProt P26039: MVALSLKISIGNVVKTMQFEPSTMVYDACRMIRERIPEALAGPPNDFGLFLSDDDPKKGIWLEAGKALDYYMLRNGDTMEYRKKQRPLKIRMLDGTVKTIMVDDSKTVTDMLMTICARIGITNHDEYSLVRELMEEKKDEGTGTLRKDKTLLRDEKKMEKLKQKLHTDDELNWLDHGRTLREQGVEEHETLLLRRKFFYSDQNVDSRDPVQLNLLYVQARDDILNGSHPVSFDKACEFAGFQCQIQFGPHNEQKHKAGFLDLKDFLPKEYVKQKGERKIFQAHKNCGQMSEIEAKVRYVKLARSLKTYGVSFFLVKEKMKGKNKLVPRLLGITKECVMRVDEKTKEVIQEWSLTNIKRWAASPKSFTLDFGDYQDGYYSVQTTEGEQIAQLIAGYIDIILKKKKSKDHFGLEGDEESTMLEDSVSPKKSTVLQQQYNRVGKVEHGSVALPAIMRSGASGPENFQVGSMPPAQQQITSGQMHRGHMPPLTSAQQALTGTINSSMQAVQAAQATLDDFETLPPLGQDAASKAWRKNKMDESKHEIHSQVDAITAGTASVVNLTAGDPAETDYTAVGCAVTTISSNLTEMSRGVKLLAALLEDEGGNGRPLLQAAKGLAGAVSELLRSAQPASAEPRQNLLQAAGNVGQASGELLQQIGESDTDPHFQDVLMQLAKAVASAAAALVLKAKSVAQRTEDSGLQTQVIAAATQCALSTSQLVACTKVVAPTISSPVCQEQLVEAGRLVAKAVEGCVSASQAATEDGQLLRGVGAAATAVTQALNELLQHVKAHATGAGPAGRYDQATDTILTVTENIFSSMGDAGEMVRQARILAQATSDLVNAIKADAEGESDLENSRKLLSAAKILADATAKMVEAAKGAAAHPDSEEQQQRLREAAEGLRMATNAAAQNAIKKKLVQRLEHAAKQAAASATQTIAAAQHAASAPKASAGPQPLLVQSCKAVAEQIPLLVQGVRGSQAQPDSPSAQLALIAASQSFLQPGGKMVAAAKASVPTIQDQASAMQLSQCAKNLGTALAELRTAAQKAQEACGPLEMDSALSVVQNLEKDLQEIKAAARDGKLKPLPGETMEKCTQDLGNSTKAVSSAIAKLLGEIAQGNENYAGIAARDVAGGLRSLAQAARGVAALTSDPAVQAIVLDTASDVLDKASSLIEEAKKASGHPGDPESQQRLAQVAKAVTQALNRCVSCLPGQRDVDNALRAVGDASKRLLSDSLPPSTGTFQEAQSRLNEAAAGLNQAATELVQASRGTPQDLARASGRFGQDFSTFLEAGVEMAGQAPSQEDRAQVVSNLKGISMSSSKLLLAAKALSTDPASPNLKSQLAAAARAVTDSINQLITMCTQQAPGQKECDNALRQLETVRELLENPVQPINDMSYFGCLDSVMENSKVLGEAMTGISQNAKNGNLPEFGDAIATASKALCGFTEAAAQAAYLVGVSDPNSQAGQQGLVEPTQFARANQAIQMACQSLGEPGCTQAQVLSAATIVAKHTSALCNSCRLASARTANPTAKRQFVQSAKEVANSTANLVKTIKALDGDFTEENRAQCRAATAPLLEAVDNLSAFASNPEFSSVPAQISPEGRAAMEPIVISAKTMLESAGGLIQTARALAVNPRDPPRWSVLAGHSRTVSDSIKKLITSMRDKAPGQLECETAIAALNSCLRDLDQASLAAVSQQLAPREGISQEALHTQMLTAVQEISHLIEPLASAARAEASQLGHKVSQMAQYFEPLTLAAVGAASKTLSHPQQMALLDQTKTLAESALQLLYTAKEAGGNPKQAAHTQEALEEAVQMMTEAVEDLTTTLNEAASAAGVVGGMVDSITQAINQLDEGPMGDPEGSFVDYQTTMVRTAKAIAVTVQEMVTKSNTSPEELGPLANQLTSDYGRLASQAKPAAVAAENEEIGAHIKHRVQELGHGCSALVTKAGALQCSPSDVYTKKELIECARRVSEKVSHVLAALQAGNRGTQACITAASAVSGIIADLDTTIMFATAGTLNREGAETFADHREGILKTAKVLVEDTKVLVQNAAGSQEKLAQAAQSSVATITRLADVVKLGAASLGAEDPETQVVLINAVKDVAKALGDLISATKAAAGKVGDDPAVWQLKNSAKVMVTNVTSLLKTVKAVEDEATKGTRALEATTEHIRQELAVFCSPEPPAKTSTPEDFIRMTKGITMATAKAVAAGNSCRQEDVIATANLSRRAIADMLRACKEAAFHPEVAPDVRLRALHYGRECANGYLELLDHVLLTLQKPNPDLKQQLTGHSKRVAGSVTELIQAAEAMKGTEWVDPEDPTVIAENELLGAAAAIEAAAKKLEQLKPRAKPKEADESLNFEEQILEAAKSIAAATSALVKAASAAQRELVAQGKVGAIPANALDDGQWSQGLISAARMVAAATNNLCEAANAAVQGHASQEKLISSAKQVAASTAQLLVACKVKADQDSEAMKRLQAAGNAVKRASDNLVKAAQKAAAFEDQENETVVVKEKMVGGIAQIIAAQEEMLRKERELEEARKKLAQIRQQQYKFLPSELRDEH

Molecular target: APP, endogenous in mouse primary neuronal cultures (mouse (endogenous in primary cortical neurons)) (UniProt P12023)
Experiment: proximity ligation; Duolink PLA with anti-talin1 (97H6) and anti-APP C-terminal antibodies in fixed, permeabilised mouse primary neuronal cultures, with Homer staining as synaptic marker

binding: binds
Substance: talin1, endogenous in mouse primary neuronal cultures (from UniProt P26039 1-2541)
